# In the supplement of paper PMC8728848:
# The list shows a part of the results.
# Legend:
# Assay in all cases: glycan array binding signal (z-score within array); higher = stronger binding
# Conditions in all cases: glycan notation: IUPAC condensed, linker removed
# [1] = target: GlcNAc(b1-2)[GlcNAc(b1-4)]Man(a1-3)[GlcNAc(b1-4)][GlcNAc(b1-2)[GlcNAc(b1-6)]Man(a1-6)]Man(b1-4)GlcNAc(b1-4)GlcNAc
# How it was run: (§1)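 Columns mapping to the same glycan were averaged after glycan names were converted to IUPAC-condensed notation. The data come from 3228 arrays in the Consortium for Functional Glycomics database, limited to those with an available protein sequence. Binding is reported as a within-array Z-score averaged across arrays of one protein sequence and across linkers.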
# [2] = target: GlcNAc(b1-2)[GlcNAc(b1-4)]Man(a1-3)[GlcNAc(b1-4)][GlcNAc(b1-2)[GlcNAc(b1-6)]Man(a1-6)]Man(b1-4)GlcNAc(b1-4)[Fuc(a1-6)]GlcNAc
# How it was run: as §1
# [3] = target: GlcNAc(b1-2)[GlcNAc(b1-6)]Man(a1-6)[GlcNAc(b1-2)Man(a1-3)]Man(b1-4)GlcNAc(b1-4)GlcNAc
# How it was run: as §1
# [4] = target: GlcNAc(b1-2)[GlcNAc(b1-6)]Man(a1-6)[GlcNAc(b1-2)Man(a1-3)]Man(b1-4)GlcNAc(b1-4)[Fuc(a1-6)]GlcNAc
# How it was run: as §1
# [5] = target: GlcNAc(b1-2)[GlcNAc(b1-6)]Man(a1-6)[GlcNAc(b1-4)][GlcNAc(b1-2)Man(a1-3)]Man(b1-4)GlcNAc(b1-4)GlcNAc
# How it was run: as §1
# GlcNAc(b1-3)Fuc = target: GlcNAc(b1-3)Fuc
# How it was run: as §1
# GlcNAc(b1-3)Gal = target: GlcNAc(b1-3)Gal
# How it was run: as §1
# [6] = target: GlcNAc(b1-3)Gal(b1-3)GalNAc
# How it was run: as §1
# GlcNAc(b1-3)Gal(b1-4)Glc = target: GlcNAc(b1-3)Gal(b1-4)Glc
# How it was run: as §1
# [7] = target: GlcNAc(b1-3)Gal(b1-4)GlcNAc
# How it was run: as §1
# [8] = target: GlcNAc(b1-3)Gal(b1-4)GlcNAc(b1-2)Man(a1-3)[GlcNAc(b1-3)Gal(b1-4)GlcNAc(b1-2)Man(a1-6)]Man(b1-4)GlcNAc(b1-4)GlcNAc
# How it was run: as §1
# [9] = target: GlcNAc(b1-3)Gal(b1-4)GlcNAc(b1-2)Man(a1-3)[GlcNAc(b1-3)Gal(b1-4)GlcNAc(b1-2)Man(a1-6)]Man(b1-4)GlcNAc(b1-4)[Fuc(a1-6)]GlcNAc
# How it was run: as §1
# [10] = target: GlcNAc(b1-3)Gal(b1-4)GlcNAc(b1-2)[GlcNAc(b1-3)Gal(b1-4)GlcNAc(b1-6)]Man(a1-6)[GlcNAc(b1-3)Gal(b1-4)GlcNAc(b1-2)Man(a1-3)]Man(b1-4)GlcNAc(b1-4)GlcNAc
# How it was run: as §1
# [11] = target: GlcNAc(b1-3)Gal(b1-4)GlcNAc(b1-3)Gal(b1-4)GlcNAc
# How it was run: as §1
# [12] = target: GlcNAc(b1-3)Gal(b1-4)GlcNAc(b1-3)Gal(b1-4)GlcNAc(b1-2)Man(a1-3)[GlcNAc(b1-3)Gal(b1-4)GlcNAc(b1-3)Gal(b1-4)GlcNAc(b1-2)Man(a1-6)]Man(b1-4)GlcNAc(b1-4)GlcNAc
# How it was run: as §1
# [13] = target: GlcNAc(b1-3)Gal(b1-4)GlcNAc(b1-3)Gal(b1-4)GlcNAc(b1-2)Man(a1-3)[GlcNAc(b1-3)Gal(b1-4)GlcNAc(b1-3)Gal(b1-4)GlcNAc(b1-2)Man(a1-6)]Man(b1-4)GlcNAc(b1-4)[Fuc(a1-6)]GlcNAc
# How it was run: as §1
# [14] = target: GlcNAc(b1-3)Gal(b1-4)GlcNAc(b1-3)Gal(b1-4)GlcNAc(b1-2)[GlcNAc(b1-3)Gal(b1-4)GlcNAc(b1-3)Gal(b1-4)GlcNAc(b1-6)]Man(a1-6)[GlcNAc(b1-3)Gal(b1-4)GlcNAc(b1-3)Gal(b1-4)GlcNAc(b1-2)Man(a1-3)]Man(b1-4)GlcNAc(b1-4)[Fuc(a1-6)]GlcNAc
# How it was run: as §1
# [15] = target: GlcNAc(b1-3)Gal(b1-4)GlcNAc(b1-3)Gal(b1-4)GlcNAc(b1-3)Gal(b1-4)GlcNAc(b1-2)Man(a1-3)[GlcNAc(b1-3)Gal(b1-4)GlcNAc(b1-3)Gal(b1-4)GlcNAc(b1-3)Gal(b1-4)GlcNAc(b1-2)Man(a1-6)]Man(b1-4)GlcNAc(b1-4)GlcNAc
# How it was run: as §1
# [16] = target: GlcNAc(b1-3)Gal(b1-4)GlcNAc(b1-3)Gal(b1-4)GlcNAc(b1-3)Gal(b1-4)GlcNAc(b1-2)Man(a1-3)[GlcNAc(b1-3)Gal(b1-4)GlcNAc(b1-3)Gal(b1-4)GlcNAc(b1-3)Gal(b1-4)GlcNAc(b1-2)Man(a1-6)]Man(b1-4)GlcNAc(b1-4)[Fuc(a1-6)]GlcNAc
# How it was run: as §1
# [17] = target: GlcNAc(b1-3)Gal(b1-4)GlcNAc(b1-3)Gal(b1-4)GlcNAc(b1-3)Gal(b1-4)GlcNAc(b1-2)[GlcNAc(b1-3)Gal(b1-4)GlcNAc(b1-3)Gal(b1-4)GlcNAc(b1-3)Gal(b1-4)GlcNAc(b1-6)]Man(a1-6)[GlcNAc(b1-3)Gal(b1-4)GlcNAc(b1-3)Gal(b1-4)GlcNAc(b1-3)Gal(b1-4)GlcNAc(b1-2)Man(a1-3)]Man(b1-4)GlcNAc(b1-4)[Fuc(a1-6)]GlcNAc
# How it was run: as §1
# [18] = target: GlcNAc(b1-3)Gal(b1-4)GlcNAc(b1-3)Gal(b1-4)GlcNAc(b1-3)Gal(b1-4)GlcNAc(b1-3)Gal(b1-4)GlcNAc(b1-2)Man(a1-3)[GlcNAc(b1-3)Gal(b1-4)GlcNAc(b1-3)Gal(b1-4)GlcNAc(b1-3)Gal(b1-4)GlcNAc(b1-3)Gal(b1-4)GlcNAc(b1-2)Man(a1-6)]Man(b1-4)GlcNAc(b1-4)GlcNAc
# How it was run: as §1
# [19] = target: GlcNAc(b1-3)Gal(b1-4)GlcNAc(b1-3)Gal(b1-4)GlcNAc(b1-3)Gal(b1-4)GlcNAc(b1-3)Gal(b1-4)GlcNAc(b1-2)Man(a1-3)[GlcNAc(b1-3)Gal(b1-4)GlcNAc(b1-3)Gal(b1-4)GlcNAc(b1-3)Gal(b1-4)GlcNAc(b1-3)Gal(b1-4)GlcNAc(b1-2)Man(a1-6)]Man(b1-4)GlcNAc(b1-4)[Fuc(a1-6)]GlcNAc
# How it was run: as §1
# [20] = target: GlcNAc(b1-3)Gal(b1-4)GlcNAc(b1-3)Gal(b1-4)GlcNAc(b1-3)Gal(b1-4)GlcNAc(b1-3)Gal(b1-4)GlcNAc(b1-2)[GlcNAc(b1-3)Gal(b1-4)GlcNAc(b1-3)Gal(b1-4)GlcNAc(b1-3)Gal(b1-4)GlcNAc(b1-3)Gal(b1-4)GlcNAc(b1-6)]Man(a1-6)[GlcNAc(b1-3)Gal(b1-4)GlcNAc(b1-3)Gal(b1-4)GlcNAc(b1-3)Gal(b1-4)GlcNAc(b1-3)Gal(b1-4)GlcNAc(b1-2)Man(a1-3)]Man(b1-4)GlcNAc(b1-4)[Fuc(a1-6)]GlcNAc
# How it was run: as §1
# [21] = target: GlcNAc(b1-3)Gal(b1-4)GlcNAc(b1-3)Gal(b1-4)GlcNAc(b1-3)GalNAc
# How it was run: as §1
# [22] = target: GlcNAc(b1-3)Gal(b1-4)GlcNAc(b1-3)GalNAc
# How it was run: as §1
# [23] = target: GlcNAc(b1-3)Gal(b1-4)GlcNAc(b1-3)[GlcNAc(b1-3)Gal(b1-4)GlcNAc(b1-3)]GalNAc
# How it was run: as §1
# [24] = target: GlcNAc(b1-3)Gal(b1-4)GlcNAc(b1-6)[Gal(b1-3)]GalNAc
# How it was run: as §1
# [25] = target: GlcNAc(b1-3)Gal(b1-4)GlcNAc(b1-6)[GlcNAc(b1-3)Gal(b1-3)]GalNAc
# How it was run: as §1
# [26] = target: GlcNAc(b1-3)Gal(b1-4)GlcNAc(b1-6)[GlcNAc(b1-3)]Gal(b1-4)GlcNAc
# How it was run: as §1
# GlcNAc(b1-3)GalNAc = target: GlcNAc(b1-3)GalNAc
# How it was run: as §1
# GlcNAc(b1-3)Man = target: GlcNAc(b1-3)Man
# How it was run: as §1
# [27] = target: GlcNAc(b1-3)[GlcNAc(b1-4)][GlcNAc(b1-6)]GlcNAc
# How it was run: as §1
# [28] = target: GlcNAc(b1-3)[GlcNAc(b1-6)]Gal(b1-4)GlcNAc
# How it was run: as §1
# [29] = target: GlcNAc(b1-3)[GlcNAc(b1-6)]GalNAc
# How it was run: as §1
# [30] = target: GlcNAc(b1-4)Gal(b1-4)GlcNAc
# How it was run: as §1
# GlcNAc(b1-4)GlcNAc = target: GlcNAc(b1-4)GlcNAc
# How it was run: as §1
# [31] = target: GlcNAc(b1-4)GlcNAc(b1-4)GlcNAc
# How it was run: as §1
# [32] = target: GlcNAc(b1-4)GlcNAc(b1-4)GlcNAc(b1-4)GlcNAc(b1-4)GlcNAc
# How it was run: as §1
binder,measurement,setting,value
PX9916F-bfa-443-24-443 (Bacteroides fragilis) (protein) DIRPVGSVIPQTAEEYRALLARAYLNVPNDRGLACLRSDEMLVNDNEYDRNSYGDIERWNDVSPFPGTSQFTWSNFYNVLFIANQVIESQKEITEGTPEVVNQLVGEAHLLRAYLHFVLVNLHGQPYTKSGALNSKSIPLKLDTDLEKTLGRNTVEEVYTSILSDIEHARELINKEKWETVFSYRFNVLSVDALQSRVSLYMGAWPKCLESAEAVLAKKSVLVDMNETPLALPNHFESVESITALEQVMGSSVNNAVWVPATFLALYQEGDKRLAAYFAAPDENGNRKSSKGGKREFSCTFRVGELYLNAAEAAANMDKLPHARMRLLELMRKRYTPEAYDKKENAVNVMDKNALISEILNERARELAFEGHRWFDLRRTTRPRMVKVLQGKTYILEQDDPRYTIPIPRDAIAANPGLAN,glycan array binding signal (z-score),[1],-0.259
same,glycan array binding signal (z-score),[2],-1.61
same,glycan array binding signal (z-score),[3],-0.631
same,glycan array binding signal (z-score),[4],-0.383
same,glycan array binding signal (z-score),[5],-0.737
same,glycan array binding signal (z-score),GlcNAc(b1-3)Fuc,-0.15
same,glycan array binding signal (z-score),GlcNAc(b1-3)Gal,-1.16
same,glycan array binding signal (z-score),[6],0.202
same,glycan array binding signal (z-score),GlcNAc(b1-3)Gal(b1-4)Glc,-0.475
same,glycan array binding signal (z-score),[7],-0.213
same,glycan array binding signal (z-score),[8],0.169
same,glycan array binding signal (z-score),[9],0.76
same,glycan array binding signal (z-score),[10],-0.234
same,glycan array binding signal (z-score),[11],1.17
same,glycan array binding signal (z-score),[12],2.18
same,glycan array binding signal (z-score),[13],-0.097
same,glycan array binding signal (z-score),[14],-0.316
same,glycan array binding signal (z-score),[15],2.55
same,glycan array binding signal (z-score),[16],0.69
same,glycan array binding signal (z-score),[17],-0.424
same,glycan array binding signal (z-score),[18],-0.292
same,glycan array binding signal (z-score),[19],-0.064
same,glycan array binding signal (z-score),[20],1.38
same,glycan array binding signal (z-score),[21],-0.739
same,glycan array binding signal (z-score),[22],-0.408
same,glycan array binding signal (z-score),[23],-0.853
same,glycan array binding signal (z-score),[24],0.767
same,glycan array binding signal (z-score),[25],0.624
same,glycan array binding signal (z-score),[26],-0.713
same,glycan array binding signal (z-score),GlcNAc(b1-3)GalNAc,-0.24
same,glycan array binding signal (z-score),GlcNAc(b1-3)Man,-0.774
same,glycan array binding signal (z-score),[27],-1.13
same,glycan array binding signal (z-score),[28],-1.09
same,glycan array binding signal (z-score),[29],-0.249
same,glycan array binding signal (z-score),[30],-0.268
same,glycan array binding signal (z-score),GlcNAc(b1-4)GlcNAc,0.138
same,glycan array binding signal (z-score),[31],0.051
same,glycan array binding signal (z-score),[32],-0.221

# Shown with tabs: entries from further up.
binder	measurement	setting	value
PX9916F-bfa-443-24-443 (Bacteroides fragilis) (protein) DIRPVGSVIPQTAEEYRALLARAYLNVPNDRGLACLRSDEMLVNDNEYDRNSYGDIERWNDVSPFPGTSQFTWSNFYNVLFIANQVIESQKEITEGTPEVVNQLVGEAHLLRAYLHFVLVNLHGQPYTKSGALNSKSIPLKLDTDLEKTLGRNTVEEVYTSILSDIEHARELINKEKWETVFSYRFNVLSVDALQSRVSLYMGAWPKCLESAEAVLAKKSVLVDMNETPLALPNHFESVESITALEQVMGSSVNNAVWVPATFLALYQEGDKRLAAYFAAPDENGNRKSSKGGKREFSCTFRVGELYLNAAEAAANMDKLPHARMRLLELMRKRYTPEAYDKKENAVNVMDKNALISEILNERARELAFEGHRWFDLRRTTRPRMVKVLQGKTYILEQDDPRYTIPIPRDAIAANPGLAN	glycan array binding signal (z-score)	[4]	-0.383
same	glycan array binding signal (z-score)	[10]	-0.234
same	glycan array binding signal (z-score)	[21]	-0.739
